From publication PMC10904810 come the findings set out here.

The target of this assay is T1, Flag-tagged RB1 (UniProt P06400).
T1 sequence: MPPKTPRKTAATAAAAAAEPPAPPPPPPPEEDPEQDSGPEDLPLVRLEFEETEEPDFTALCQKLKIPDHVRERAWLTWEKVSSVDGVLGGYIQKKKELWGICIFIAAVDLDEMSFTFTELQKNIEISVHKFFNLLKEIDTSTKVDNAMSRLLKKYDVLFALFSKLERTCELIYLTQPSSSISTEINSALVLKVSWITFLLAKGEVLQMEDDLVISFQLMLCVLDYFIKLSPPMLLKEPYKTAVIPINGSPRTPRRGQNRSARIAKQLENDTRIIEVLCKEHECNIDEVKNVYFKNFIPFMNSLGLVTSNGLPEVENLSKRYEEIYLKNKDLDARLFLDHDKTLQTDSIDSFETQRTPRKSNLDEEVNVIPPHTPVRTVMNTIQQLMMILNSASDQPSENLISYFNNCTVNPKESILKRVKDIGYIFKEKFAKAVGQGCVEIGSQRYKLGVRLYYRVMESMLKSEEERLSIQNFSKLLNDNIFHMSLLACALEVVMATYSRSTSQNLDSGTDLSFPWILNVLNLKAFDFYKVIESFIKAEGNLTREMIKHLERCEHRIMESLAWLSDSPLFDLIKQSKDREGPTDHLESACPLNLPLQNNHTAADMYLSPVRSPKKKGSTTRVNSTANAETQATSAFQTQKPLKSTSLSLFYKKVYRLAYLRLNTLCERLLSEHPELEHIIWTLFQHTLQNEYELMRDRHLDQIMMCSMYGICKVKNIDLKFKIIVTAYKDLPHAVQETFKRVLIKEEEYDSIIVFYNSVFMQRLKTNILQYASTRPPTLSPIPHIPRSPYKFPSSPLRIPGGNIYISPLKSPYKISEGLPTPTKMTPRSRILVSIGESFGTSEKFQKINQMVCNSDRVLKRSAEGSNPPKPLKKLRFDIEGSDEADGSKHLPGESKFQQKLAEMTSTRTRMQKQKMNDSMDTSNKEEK
As to the kind of experiment: affinity purification with mass spectrometry; 293T cells transfected with Flag-tagged RB1 with or without MYC, 48 h; lysed with IP buffer, Flag-conjugated agarose beads, eluted with 2% SDS, LC-MS.

No constants are given. Whether binding was seen depends on the method and setting. In cells and extracts the contact can be indirect. These calls come from enrichment with a bait or labelling near it, and not all partners need be listed. Tags and fused reporters may be left off the sequences shown.

B1: KLHL42 found by LC-MS in the Flag-RB1 immunoprecipitate (protein, UniProt Q9P2K6 1-505)
chain: MSAEEMVQIRLEDRCYPVSKRKLIEQSDYFRALYRSGMREALSQEAGGPEVQQLRGLSAPGLRLVLDFINAGGAREGWLLGPRGEKGGGVDEDEEMDEVSLLSELVEAASFLQVTSLLQLLLSQVRLNNCLEMYRLAQVYGLPDLQEACLRFMVVHFHEVLCKPQFHLLGSPPQAPGDVSLKQRLREARMTGTPVLVALGDFLGGPLAPHPYQGEPPSMLRYEEMTERWFPLANNLPPDLVNVRGYGSAILDNYLFIVGGYRITSQEISAAHSYNPSTNEWLQVASMNQKRSNFKLVAVNSKLYAIGGQAVSNVECYNPEQDAWNFVAPLPNPLAEFSACECKGKIYVIGGYTTRDRNMNILQYCPSSDMWTLFETCDVHIRKQQMVSVEETIYIVGGCLHELGPNRRSSQSEDMLTVQSYNTVTRQWLYLKENTSKSGLNLTCALHNDGIYIMSRDVTLSTSLEHRVFLKYNIFSDSWEAFRRFPAFGHNLLVSSLYLPNKAET
Consider B1, for which the binding result is on record as “binds”.
